# In publication PMC9366597 (RSC Advances, 2022):
# Test: PAMPA-BBB permeation assay
structure (smiles),measurement,setting,value
"COc1cc2c(cc1OC)C(=O)C(CC1CCN(Cc3ccccc3)CC1)C2 (centres unmarked) [Donepezil, reference compound]","Prediction (PAMPA-BBB) (CNS+, CNS−)",class from Pe,CNS+ (‘CNS+’ (prediction of high BBB permeation); Pe (10^−6 cm s^−1) > 4.39)
same,Permeability (PAMPA-BBB) Pe(tested),"pH 7.4, 20 hours, room temperature",6.55 ± 0.10 10^−6 cm s^−1
